Source: PMC8950481
Results are given in words; binding and its absence hold for the method and conditions named. For some assays here: Binding seen in cells or lysates may run through a third protein. Some entries that bind do so weakly or less than the wild type. Where a sequence is shown, tags or fusion partners need not be part of it.

Amino acid sequences for entries named in this document (tags omitted).
UniProt P93002: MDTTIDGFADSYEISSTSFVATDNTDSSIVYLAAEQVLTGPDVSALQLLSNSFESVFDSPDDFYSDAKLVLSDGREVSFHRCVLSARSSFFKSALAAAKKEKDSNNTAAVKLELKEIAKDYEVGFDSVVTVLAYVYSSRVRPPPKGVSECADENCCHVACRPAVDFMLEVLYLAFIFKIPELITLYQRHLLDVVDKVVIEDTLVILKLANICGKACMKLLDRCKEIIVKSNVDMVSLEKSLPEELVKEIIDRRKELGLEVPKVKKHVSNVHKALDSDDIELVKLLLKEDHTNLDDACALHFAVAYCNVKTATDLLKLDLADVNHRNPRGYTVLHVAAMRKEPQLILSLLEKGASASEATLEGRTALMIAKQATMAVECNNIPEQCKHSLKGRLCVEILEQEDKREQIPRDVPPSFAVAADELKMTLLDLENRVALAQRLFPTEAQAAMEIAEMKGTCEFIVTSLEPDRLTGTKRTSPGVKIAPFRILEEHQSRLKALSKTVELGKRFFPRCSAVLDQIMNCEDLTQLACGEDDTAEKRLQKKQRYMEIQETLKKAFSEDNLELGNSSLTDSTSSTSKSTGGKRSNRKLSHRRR

What was measured:
[1] = molecular target: T1, HOS15-GFP (Arabidopsis thaliana) (UniProt Q9FN19); test: co-IP; HOS15-GFP and NPR1-HA co-infiltrated in N. benthamiana leaves, extracted after three days; immunoprecipitated with anti-GFP, blotted with anti-HA
T1 sequence: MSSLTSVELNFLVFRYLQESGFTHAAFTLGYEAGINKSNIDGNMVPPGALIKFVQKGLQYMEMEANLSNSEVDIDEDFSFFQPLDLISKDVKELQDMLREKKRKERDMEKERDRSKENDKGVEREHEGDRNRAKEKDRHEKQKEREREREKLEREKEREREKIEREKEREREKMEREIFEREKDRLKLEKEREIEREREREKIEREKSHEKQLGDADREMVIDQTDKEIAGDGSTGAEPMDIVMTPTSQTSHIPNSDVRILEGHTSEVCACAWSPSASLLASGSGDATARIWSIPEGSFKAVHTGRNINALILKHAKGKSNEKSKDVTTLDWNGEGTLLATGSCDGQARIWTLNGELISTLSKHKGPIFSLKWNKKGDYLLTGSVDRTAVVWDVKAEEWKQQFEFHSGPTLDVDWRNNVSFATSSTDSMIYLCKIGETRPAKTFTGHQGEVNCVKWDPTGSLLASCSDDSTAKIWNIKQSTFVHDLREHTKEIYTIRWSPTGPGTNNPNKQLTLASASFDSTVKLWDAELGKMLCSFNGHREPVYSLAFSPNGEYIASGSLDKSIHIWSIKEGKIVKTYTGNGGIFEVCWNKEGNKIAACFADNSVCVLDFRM

[2] = molecular target: T2, HOS15, full-length, yeast two-hybrid fusion (Arabidopsis thaliana) (UniProt Q9FN19); test: two-hybrid; yeast strain PJ694A; pDEST32 (BD, bait) and pDEST22 (AD, prey); growth on -TLH against -TL control medium; three independent transformants; empty vectors as negative controls
T2 sequence: T1 sequence

In the case of NPR1-HA (from UniProt P93002 1-593), the binding [1] is reported as “binds”.
“Non-expresser of PR genes 1 (NPR1), full-length, yeast two-hybrid fusion (from UniProt P93002 1-593)” was tested, and the binding [2] was “binds”.
